Source: PMC10298792
These are yes or no findings as the source states them, for the method shown. For part of these data: Binding seen in cells or lysates may run through a third protein. Some results given as binding are weak or reduced against the parent protein; the word gives no strength. Where a sequence is shown, tags or fusion partners need not be part of it.

The chains behind the UniProt entries cited, without tags or fusion partners. Where a name states a change or a piece, a line headed by the entry shows the natural chain unless it says otherwise.
UniProt Q8K459: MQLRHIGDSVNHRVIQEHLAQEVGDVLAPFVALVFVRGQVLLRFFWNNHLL

Columns and labels:
[1] = biological target: T1, GFP-tagged full-length human Pxt1 (peroxisomal testis-specific 1) (human) (UniProt Q8NFP0); assay: co-IP; HeLa cells expressing GFP-tagged Pxt1 constructs with transiently expressed HA-Bak or HA-Bax, or with endogenous Bak/Bax; 20 μM z-VAD-fmk before transfection; lysis in 50 mM Tris–HCl pH 7.5, 150 mM NaCl, 0.5% Triton X-100, 1 mM EDTA; anti-GFP or anti-HA antibody overnight at 4°C, protein G agarose; immunoblotting
T1 sequence: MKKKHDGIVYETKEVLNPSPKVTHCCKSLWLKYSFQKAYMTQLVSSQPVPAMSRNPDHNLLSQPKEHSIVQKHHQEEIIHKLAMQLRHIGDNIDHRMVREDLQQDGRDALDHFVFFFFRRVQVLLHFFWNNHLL

[2] = biological target: T2, C-terminal His6-tagged human Bak (residues 23–185;C166S) (human) (UniProt Q16611); assay: ITC; Pxt1 peptide (0.8 mM) titrated into 80 μM recombinant Bak; no detergent; performed as in ref. 27; both purified
T2 sequence: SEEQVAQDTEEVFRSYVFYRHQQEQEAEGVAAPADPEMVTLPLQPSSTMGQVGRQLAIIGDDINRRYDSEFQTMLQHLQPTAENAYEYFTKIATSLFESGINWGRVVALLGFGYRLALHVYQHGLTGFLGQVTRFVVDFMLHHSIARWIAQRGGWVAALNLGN

[3] = biological target: T2, C-terminal His6-tagged human Bak (residues 23–185;C166S) (human); assay: condition: only without Pxt1 BH3 peptide or without CHAPS; SEC; 100 μM Bak without Pxt1 BH3 peptide or without CHAPS; Superdex 75 10/300 GL; both purified
[4] = biological target: T2, C-terminal His6-tagged human Bak (residues 23–185;C166S) (human); assay: condition: only without BH3 peptide or without CHAPS; native gel or EMSA; 100 μM Bak incubated for 1 h without BH3 peptide or without CHAPS; both purified

B1: HA-tagged full-length Bak (Bcl-2 antagonist/killer), transiently expressed (protein, UniProt Q16611 1-211)
chain: MASGQGPGPPRQECGEPALPSASEEQVAQDTEEVFRSYVFYRHQQEQEAEGVAAPADPEMVTLPLQPSSTMGQVGRQLAIIGDDINRRYDSEFQTMLQHLQPTAENAYEYFTKIATSLFESGINWGRVVALLGFGYRLALHVYQHGLTGFLGQVTRFVVDFMLHHCIARWIAQRGGWVAALNLGNGPILNVLVVLGVVLLGQFVVRRFFKS
- binding [1]: binds

B2: endogenous Bak of HeLa cells (protein, UniProt Q16611 1-211)
chain: MASGQGPGPPRQECGEPALPSASEEQVAQDTEEVFRSYVFYRHQQEQEAEGVAAPADPEMVTLPLQPSSTMGQVGRQLAIIGDDINRRYDSEFQTMLQHLQPTAENAYEYFTKIATSLFESGINWGRVVALLGFGYRLALHVYQHGLTGFLGQVTRFVVDFMLHHCIARWIAQRGGWVAALNLGNGPILNVLVVLGVVLLGQFVVRRFFKS
- binding [1]: binds

B3: synthetic mouse Pxt1(1–18) peptide (peptide, UniProt Q8K459 1-18)
peptide: MQLRHIGDSVNHRVIQEH
- binding [2]: no binding (tested: 0.8 mM peptide titrated into 80 μM Bak)

B4: synthetic human Pxt1(84–101) peptide (peptide, UniProt Q8NFP0 84-101)
peptide: MQLRHIGDNIDHRMVRED
- binding [2]: no binding (tested: 0.8 mM peptide titrated into 80 μM Bak)

B5: C-terminal His6-tagged human Bak (residues 23–185;C166S) (domain or fragment, UniProt Q16611 23-185)
chain: SEEQVAQDTEEVFRSYVFYRHQQEQEAEGVAAPADPEMVTLPLQPSSTMGQVGRQLAIIGDDINRRYDSEFQTMLQHLQPTAENAYEYFTKIATSLFESGINWGRVVALLGFGYRLALHVYQHGLTGFLGQVTRFVVDFMLHHSIARWIAQRGGWVAALNLGN
- binding [3]: no binding
- binding [4]: no binding
